Binding data for one substance are collected here from article doi:10.1101/2025.04.28.651057.

Sequences of proteins named here, by UniProt entry; tags and fusion partners are left off.
UniProt Q8BQQ1: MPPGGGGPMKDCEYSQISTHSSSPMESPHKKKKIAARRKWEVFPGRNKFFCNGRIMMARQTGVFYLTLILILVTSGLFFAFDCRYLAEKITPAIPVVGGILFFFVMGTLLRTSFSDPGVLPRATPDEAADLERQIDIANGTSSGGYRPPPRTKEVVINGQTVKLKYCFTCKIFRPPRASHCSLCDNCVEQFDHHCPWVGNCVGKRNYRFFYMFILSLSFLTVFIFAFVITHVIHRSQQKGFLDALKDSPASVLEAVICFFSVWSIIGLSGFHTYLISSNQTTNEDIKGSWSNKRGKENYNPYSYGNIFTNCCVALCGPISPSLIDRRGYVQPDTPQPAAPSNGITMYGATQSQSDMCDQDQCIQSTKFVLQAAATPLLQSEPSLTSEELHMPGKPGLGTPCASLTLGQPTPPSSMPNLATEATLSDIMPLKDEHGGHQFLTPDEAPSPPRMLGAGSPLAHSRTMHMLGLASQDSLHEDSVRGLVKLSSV
UniProt Q7Z5G4: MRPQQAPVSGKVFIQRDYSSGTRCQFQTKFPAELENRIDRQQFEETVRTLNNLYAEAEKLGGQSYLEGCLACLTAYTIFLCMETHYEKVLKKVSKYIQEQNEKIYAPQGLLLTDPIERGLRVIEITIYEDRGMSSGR

Holding throughout (test): co-IP
Assay [1] concerns the target HA-Zdhhc14 (mouse) (mouse) (UniProt Q8BQQ1).
In assay [2] the target is T1, HA-Zdhhc25 (mouse) (mouse) (UniProt Q810M4).
T1 sequence: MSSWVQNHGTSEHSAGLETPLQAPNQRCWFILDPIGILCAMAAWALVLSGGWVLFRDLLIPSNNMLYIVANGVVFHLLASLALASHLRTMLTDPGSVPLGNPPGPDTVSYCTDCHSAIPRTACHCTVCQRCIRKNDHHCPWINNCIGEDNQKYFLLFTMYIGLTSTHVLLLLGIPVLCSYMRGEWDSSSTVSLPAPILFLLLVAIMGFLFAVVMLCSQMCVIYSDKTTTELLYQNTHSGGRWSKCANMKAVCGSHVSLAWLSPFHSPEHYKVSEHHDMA

In assay [3] the target is T2, HA-Zdhhc7 (mouse) (mouse) (UniProt Q91WU6).
T2 sequence: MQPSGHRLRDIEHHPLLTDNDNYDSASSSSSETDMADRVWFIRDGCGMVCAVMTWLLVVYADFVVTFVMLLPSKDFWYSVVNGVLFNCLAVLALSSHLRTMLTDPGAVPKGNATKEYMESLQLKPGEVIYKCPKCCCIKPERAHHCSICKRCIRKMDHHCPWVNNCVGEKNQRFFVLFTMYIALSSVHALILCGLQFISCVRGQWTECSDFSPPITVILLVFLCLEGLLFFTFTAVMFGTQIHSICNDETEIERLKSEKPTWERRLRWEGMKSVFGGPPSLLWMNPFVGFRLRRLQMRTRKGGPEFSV

A further assay has as its target T3, Zdhhc4^RNYR (mouse) (UniProt Q9D6H5).
T3 sequence: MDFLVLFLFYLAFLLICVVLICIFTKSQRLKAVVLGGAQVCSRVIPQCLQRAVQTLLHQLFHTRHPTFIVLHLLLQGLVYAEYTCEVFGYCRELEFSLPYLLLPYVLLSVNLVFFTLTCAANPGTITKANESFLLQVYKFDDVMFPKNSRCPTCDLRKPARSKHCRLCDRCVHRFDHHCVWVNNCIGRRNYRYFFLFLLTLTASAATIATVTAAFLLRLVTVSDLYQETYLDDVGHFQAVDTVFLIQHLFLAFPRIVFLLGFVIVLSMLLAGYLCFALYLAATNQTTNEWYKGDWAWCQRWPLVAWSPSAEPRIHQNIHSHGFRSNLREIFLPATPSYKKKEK

Results are given in words; binding and its absence hold for the method and conditions named. In cells and extracts the contact can be indirect. Some binding calls cover weakened binding; strength is not graded here. For some of these results: Sequences can lack the tags named with a protein.

Regarding “endogenous human GOLGA7 (from UniProt Q7Z5G4 1-137)”, the binding result in assay [1] is reported as “binds”; in assay [2] it was “no binding”; in assay [3] it was “no binding”; in the assay with Zdhhc4^RNYR (mouse), “no binding”.
